Literature values in US9521846B2, “Template-fixed peptidomimetics with antimicrobial activity” (priority 2006, dated 2016).
Some of these results come from one statement about several compounds together.

System: wide range of pathogens
Settings: over a wide range of pathogens; cited from earlier work

Substance | average MIC-values
protegrin | 1 to 5 µg/mL
tachyplesin | 1 to 5 µg/mL
